Experimental data taken from CN112724255A.
No constants are given. Whether binding was seen depends on the method and setting. Some entries that bind do so weakly or less than the wild type.

Amino acid sequences for entries named in this document (tags omitted). Residues count along the entry.
UniProt P06731, residues 35-685: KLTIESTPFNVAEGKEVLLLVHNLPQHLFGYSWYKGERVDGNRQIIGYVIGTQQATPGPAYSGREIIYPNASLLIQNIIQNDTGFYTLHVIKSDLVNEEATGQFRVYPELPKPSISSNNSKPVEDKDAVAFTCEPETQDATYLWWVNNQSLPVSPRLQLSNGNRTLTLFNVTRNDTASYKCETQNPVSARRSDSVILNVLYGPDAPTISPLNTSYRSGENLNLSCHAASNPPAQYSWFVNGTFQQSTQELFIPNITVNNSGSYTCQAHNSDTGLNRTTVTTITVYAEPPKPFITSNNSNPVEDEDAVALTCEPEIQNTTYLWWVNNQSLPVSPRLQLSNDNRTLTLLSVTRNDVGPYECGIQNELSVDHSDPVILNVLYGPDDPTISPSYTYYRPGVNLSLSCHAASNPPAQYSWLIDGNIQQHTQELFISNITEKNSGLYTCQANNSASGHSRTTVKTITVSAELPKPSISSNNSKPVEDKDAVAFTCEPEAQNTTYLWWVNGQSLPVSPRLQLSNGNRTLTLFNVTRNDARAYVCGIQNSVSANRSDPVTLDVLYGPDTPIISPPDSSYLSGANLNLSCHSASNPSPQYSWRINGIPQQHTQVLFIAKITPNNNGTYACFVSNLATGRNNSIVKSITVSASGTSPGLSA

Target: 癌胚抗原 (CEA) 抗原 (UniProt P06731)
Experiment: ELISA, CEA antigen coated, detection with anti-His-HRP

- binding: binds
B1: 96ScFv 单链抗体 (靶向癌胚抗原的小分子抗体) (scFv)
scFv: MGQVRLRESGPSLVKPSQTLSLTCTVSGFSLTKYGVSWVRQAPGKALEWLGGVSSGALTAYNTALQSRLSVTRDTSKSQFSLSLSSVTTEDTAIYYCAKSVNGDSVPYGLDYWSPGLLITVSSGGGGSGGGGSGGGGSQAVLTQPSSVSGSLGQRVSITCSGSSSNIGGNAYVGWYQQVPGSAPRLLISATTDRASGIPDRFFGSRSGNTATLTISSLQAEDEADYYCASYQSTYSGVFGSGTMLAVLGTVAAPSVFHHHHHHHLGGC
